Experimental data from PubChem BioAssay AID1242 (PCMD, 2008).
Some of the results follow.

Experiment: clotrimazole potentiators killing C. albicans biofilm, primary screen, 4-compound mixtures (AID 1242);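 also: compounds exposed to preformed 24 h biofilms for 48 h; 0% = untreated biofilm control and 100% = clotrimazole plus chlorhexidine kill blank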
Conditions: C. albicans biofilm persisters + clotrimazole, fluorescence viability; primary screen in compound mixtures of four per well; measured here: individual compound retest; at 61 µM; stronger effect = higher value

| SMILES | inhibition |
| --- | --- |
| CN(C)C(=O)Oc1noc2ccccc12 | -15.3% |
| Cc1ccc(OP(=O)(Nc2nccs2)Oc2ccc(C)cc2)cc1 | -14.2% |
| O=[N+]([O-])c1cc([N+](=O)[O-])c(Nc2ccccn2)c([N+](=O)[O-])c1 | 16.4% |
